Taken from: PubChem BioAssay AID1259272 (Sanger Institute, 2017)
In all, the deposit lists 794 reagents; below is an unselected part. 7 of them (0.88%) were called active. 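Essential calls reflect knock-down without drug only, not synergy with drugs; drug exposure length not given.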 No viability above 1 is reported: the scale is capped. Further read-outs or replicates are left out here. No sequences are given here. Not stated in the record: the amount of reagent, the time to read-out.

- Test: 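Kinase knock-downs lethal to colorectal cancer cells, with or without anchor drugs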 (primary screen)
- System: SW1116 human colorectal cancer cells
- Knock-down reagent: siRNA pool against human genes
- Conditions: anchor drugs BYL719 (1 µM), cetuximab (5 µg/ml) or trametinib (10 nM), or DMSO vehicle; exposure length not given
- Detection: 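Replicate-averaged viability versus control-pool wells, with a robust z-score for siRNA alone and a per-drug synergy score (BYL719, cetuximab, trametinib)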
- Scale: viability z-score, no drug: higher = more cells remaining; strongly negative means essential gene; viability, no drug: higher = more viable cells
- Active means: 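a robust z-score under -3 with siRNA and no drug marks the gene essential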
- Meaning of the calls: active = essential (knock-down alone); inactive = no change

| gene | viability z-score, no drug | viability, no drug (fraction of control) | Outcome |
| --- | --- | --- | --- |
| MAP2K6 | -0.697 | 0.836 | inactive |
| HASPIN | -1.08 | 0.795 | inactive |
| NADK | -1.9 | 0.707 | inactive |
| ZC3H11A | -0.123 | 0.897 | inactive |
| MAP2K4 | -1.04 | 0.8 | inactive |
| KDR | -0.0198 | 0.908 | inactive |
| FYN | -0.0747 | 0.902 | inactive |
| UCKL1 | -0.288 | 0.88 | inactive |
| MOS | 0.0112 | 0.912 | inactive |
| RIPK2 | 0.842 | 1 | inactive |
| MUSK | -2.71 | 0.622 | inactive |
| CDK9 | 0.842 | 1 | inactive |
| MAST3 | 0.842 | 1 | inactive |
| CLK1 | 0.665 | 0.981 | inactive |
| TBCK | 0.842 | 1 | inactive |
| MAGI1 | -0.0777 | 0.902 | inactive |
| ACVR2A | 0.12 | 0.923 | inactive |
| DYRK4 | -0.0074 | 0.91 | inactive |
| DLG2 | 0.842 | 1 | inactive |
| MAP3K6 | 0.842 | 1 | inactive |
| ITPKA | -1.1 | 0.793 | inactive |
| BCR | 0.842 | 1 | inactive |
| COQ8B | 0.608 | 0.975 | inactive |
| PAK2 | 0.842 | 1 | inactive |
| GOLGA5 | 0.327 | 0.945 | inactive |
| PIK3R1 | 0.842 | 1 | inactive |
| BRAF | -0.177 | 0.891 | inactive |
| BRD2 | 0.842 | 1 | inactive |
| RUNX1 | -1.35 | 0.767 | inactive |
| MELK | 0.404 | 0.953 | inactive |

Just “viability, no drug (fraction of control)” (5 entries from above):
ITPKA: 0.793
BCR: 1
COQ8B: 0.975
PAK2: 1
GOLGA5: 0.945

Next entries follow:
| gene | viability z-score, no drug | viability, no drug (fraction of control) | Outcome |
| --- | --- | --- | --- |
| STK32C | 0.842 | 1 | inactive |
| CSNK2A2 | 0.0794 | 0.919 | inactive |
| PFKFB4 | 0.773 | 0.993 | inactive |
| AK4 | 0.573 | 0.971 | inactive |
| PTK2B | -0.627 | 0.844 | inactive |
| CSNK2B | -0.383 | 0.87 | inactive |
| ROR2 | 0.287 | 0.941 | inactive |
| DMPK | 0.842 | 1 | inactive |
| SRPK3 | 0.842 | 1 | inactive |
| RELA | 0.842 | 1 | inactive |
| HIPK2 | 0.842 | 1 | inactive |
| IRAK4 | -1.79 | 0.72 | inactive |
| PRKD3 | 0.432 | 0.956 | inactive |
| MAP3K5 | 0.842 | 1 | inactive |
| CDK10 | -1.88 | 0.71 | inactive |
| CRKL | -0.298 | 0.879 | inactive |
| TAF1 | 0.479 | 0.961 | inactive |
| WNK3 | 0.338 | 0.946 | inactive |
| PI4K2A | 0.842 | 1 | inactive |
| TEX14 | 0.842 | 1 | inactive |
